In the supplement of paper PMC5355238:
Counter-ions that a name gives are not always drawn. The list shows a part of the results. Most entries show no effect beyond the scatter of the controls.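 Using flow cytometry, the assay measures the median γH2AX antibody signal in S-phase Reh cells (a human leukemia line). Each score is the number of standard deviations from the median difference of paired plate sets. Candidate hits scored above 2.5; compounds scoring below -2 lowered MK1775-induced damage.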

tested on: Reh; assay: Z' of S-phase gammaH2AX difference (drug + MK1775 minus drug alone) (Z-score); higher = stronger synergistic S-phase DNA damage with MK1775; conditions: MK1775 concentration 400 nM; first compound 10 µM; 4 h

SMILES | Z' of S-phase gammaH2AX difference (Z-score)
COc1ccc2c(c1OC)C(=O)OC2C1c2cc3c(cc2CCN1C)OCO3 (single isomer, unassigned; (+)) [(+)-Hydrastine] + C=CCn1c(=O)c2cnc(Nc3ccc(N4CCN(C)CC4)cc3)nc2n1-c1cccc(C(C)(C)O)n1 [MK1775] | inactive: -0.0899
O=C1C=CC(=O)C=C1 [p-Benzoquinone] + C=CCn1c(=O)c2cnc(Nc3ccc(N4CCN(C)CC4)cc3)nc2n1-c1cccc(C(C)(C)O)n1 [MK1775] | inactive: 0.254
O=C(O)c1cc[c]([Hg][Cl])cc1 [4-Chloromercuribenzoic acid] + C=CCn1c(=O)c2cnc(Nc3ccc(N4CCN(C)CC4)cc3)nc2n1-c1cccc(C(C)(C)O)n1 [MK1775] | inactive: 1.41
CC1=NN=C(c2ccc(N)cc2)c2cc3c(cc2C1)OCO3 + C=CCn1c(=O)c2cnc(Nc3ccc(N4CCN(C)CC4)cc3)nc2n1-c1cccc(C(C)(C)O)n1 [MK1775] | inactive: 1.16
CC(=O)[C@H]1CC[C@H]2[C@@H]3CC[C@H]4C[C@H](O)CC[C@]4(C)[C@H]3C(=O)C[C@]12C [5alpha-Pregnan-3alpha-ol-11,20-dione] + C=CCn1c(=O)c2cnc(Nc3ccc(N4CCN(C)CC4)cc3)nc2n1-c1cccc(C(C)(C)O)n1 [MK1775] | inactive: 0.456
CC(=O)c1c(O)c(C)c(O)c(Cc2c(O)c3c(c(C(=O)/C=C/c4ccccc4)c2O)OC(C)(C)C=C3)c1O [Rottlerin] + C=CCn1c(=O)c2cnc(Nc3ccc(N4CCN(C)CC4)cc3)nc2n1-c1cccc(C(C)(C)O)n1 [MK1775] | inactive: -0.446
COc1ccccc1N1CCNCC1 [1-(2-Methoxyphenyl)piperazine hydrochloride] + C=CCn1c(=O)c2cnc(Nc3ccc(N4CCN(C)CC4)cc3)nc2n1-c1cccc(C(C)(C)O)n1 [MK1775] | inactive: -0.259
C=C1C[C@@H]2[C@H](CC[C@]3(C)C(=O)CC[C@@H]23)[C@@]2(C)C=CC(=O)C=C12 [Exemestane] + C=CCn1c(=O)c2cnc(Nc3ccc(N4CCN(C)CC4)cc3)nc2n1-c1cccc(C(C)(C)O)n1 [MK1775] | inactive: 0.614
C/C(O)=C(\C#N)C(=O)Nc1cc(Br)ccc1Br + C=CCn1c(=O)c2cnc(Nc3ccc(N4CCN(C)CC4)cc3)nc2n1-c1cccc(C(C)(C)O)n1 [MK1775] | inactive: 1.65
CCCC(C)(COC(N)=O)COC(=O)NC(C)C (stereo not given) [Carisoprodol] + C=CCn1c(=O)c2cnc(Nc3ccc(N4CCN(C)CC4)cc3)nc2n1-c1cccc(C(C)(C)O)n1 [MK1775] | inactive: 0.117
